Among the data in paper doi:10.1101/2023.01.18.524620 are binding values, retold here.

By UniProt entry, the sequences of proteins in these tests, tags left out.
UniProt P55737: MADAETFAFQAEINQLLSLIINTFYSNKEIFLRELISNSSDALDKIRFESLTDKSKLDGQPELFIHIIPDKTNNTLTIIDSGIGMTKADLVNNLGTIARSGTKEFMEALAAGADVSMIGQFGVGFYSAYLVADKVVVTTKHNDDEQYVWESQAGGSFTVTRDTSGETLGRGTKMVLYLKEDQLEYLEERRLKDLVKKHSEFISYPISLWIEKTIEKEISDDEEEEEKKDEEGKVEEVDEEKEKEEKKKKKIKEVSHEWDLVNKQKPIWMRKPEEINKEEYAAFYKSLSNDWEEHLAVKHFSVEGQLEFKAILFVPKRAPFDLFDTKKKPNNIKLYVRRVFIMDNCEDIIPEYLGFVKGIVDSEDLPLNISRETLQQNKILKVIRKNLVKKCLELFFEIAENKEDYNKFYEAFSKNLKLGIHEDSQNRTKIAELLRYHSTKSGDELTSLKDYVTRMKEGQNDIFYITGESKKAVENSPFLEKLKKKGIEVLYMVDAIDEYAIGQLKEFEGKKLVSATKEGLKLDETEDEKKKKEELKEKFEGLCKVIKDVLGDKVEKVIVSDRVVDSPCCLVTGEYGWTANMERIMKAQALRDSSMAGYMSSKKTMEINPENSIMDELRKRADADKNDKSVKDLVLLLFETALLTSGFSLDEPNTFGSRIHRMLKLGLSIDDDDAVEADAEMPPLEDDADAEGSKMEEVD

These are yes or no findings as the source states them, for the method shown. For part of these data: In cells and extracts the contact can be indirect. Some results given as binding are weak or reduced against the parent protein; the word gives no strength. Where a sequence is shown, tags or fusion partners need not be part of it.

The target in assay [1] is T1, cYFP-AGO1 (full-length AGO1 fused to the C-terminal half of YFP) (Arabidopsis thaliana) (UniProt O04379).
T1 sequence: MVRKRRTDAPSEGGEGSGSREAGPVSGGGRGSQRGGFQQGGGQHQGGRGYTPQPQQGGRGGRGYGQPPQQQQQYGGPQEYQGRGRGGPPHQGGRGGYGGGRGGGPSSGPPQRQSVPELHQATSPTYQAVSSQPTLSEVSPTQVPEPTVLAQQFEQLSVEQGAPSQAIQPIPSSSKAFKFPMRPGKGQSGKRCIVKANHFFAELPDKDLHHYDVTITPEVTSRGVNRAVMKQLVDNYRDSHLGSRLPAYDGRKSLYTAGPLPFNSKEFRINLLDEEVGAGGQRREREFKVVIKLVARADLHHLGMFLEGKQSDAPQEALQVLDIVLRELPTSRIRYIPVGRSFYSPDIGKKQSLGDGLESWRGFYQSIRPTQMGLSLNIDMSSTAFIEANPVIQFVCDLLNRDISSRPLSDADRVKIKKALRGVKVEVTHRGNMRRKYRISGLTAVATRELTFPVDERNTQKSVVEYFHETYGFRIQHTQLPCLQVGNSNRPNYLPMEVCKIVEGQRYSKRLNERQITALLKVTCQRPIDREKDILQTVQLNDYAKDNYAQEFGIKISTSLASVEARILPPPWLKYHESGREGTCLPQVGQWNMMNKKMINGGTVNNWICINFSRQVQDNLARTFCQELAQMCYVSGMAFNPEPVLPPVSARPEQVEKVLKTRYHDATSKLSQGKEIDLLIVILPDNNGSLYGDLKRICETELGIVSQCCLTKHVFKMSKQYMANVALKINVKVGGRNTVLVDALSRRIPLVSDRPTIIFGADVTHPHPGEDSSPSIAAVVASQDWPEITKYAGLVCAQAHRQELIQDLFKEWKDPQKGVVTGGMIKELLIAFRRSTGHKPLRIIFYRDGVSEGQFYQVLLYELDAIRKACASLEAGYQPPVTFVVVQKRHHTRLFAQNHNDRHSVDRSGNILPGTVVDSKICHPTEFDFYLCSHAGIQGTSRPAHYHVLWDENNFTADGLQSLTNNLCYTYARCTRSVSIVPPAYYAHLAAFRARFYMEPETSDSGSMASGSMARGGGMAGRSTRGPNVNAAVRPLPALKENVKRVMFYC
In words: split reporter.

Assay [2] deals with T2, βNc^AGO1 (N-coil plus connecting β-strands), Gal4-BD fusion (Arabidopsis thaliana) (UniProt O04379).
T2 sequence: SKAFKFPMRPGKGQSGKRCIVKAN
In words: two-hybrid.

The target of assay [3] is T3, N-coil-Globular N part of arabidopsis AGO1 (NcGN^AGO1), Gal4-BD fusion (Arabidopsis thaliana) (UniProt O04379).
T3 sequence: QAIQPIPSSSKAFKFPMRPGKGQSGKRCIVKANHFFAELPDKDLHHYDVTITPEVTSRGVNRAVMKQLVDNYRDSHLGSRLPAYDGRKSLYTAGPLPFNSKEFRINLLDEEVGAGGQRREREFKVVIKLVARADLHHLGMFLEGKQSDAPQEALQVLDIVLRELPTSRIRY
As to the kind of experiment: two-hybrid.

Take “nYFP-Hsp90.2 (from UniProt P55737 1-699)”: the binding entry in assay [1] is “binds”.

B1: nYFP-ATI2^Δ119-193 (protein, UniProt Q8VY98)
chain: MADKDEAATRGNDWEVVSLTASAYAAAPGPKPVVDSKDDDHKEVTPCYEAETSHPLYMSRHFVFPPTGQLENTSDLTEASLTGSHCKEGSDLSLKGLDLSDDFGGLEFSEDKGKKEENVWSICIAAAVMGIVILGQHWQQERWQILQQKWESSIGNEKAGRLMGPISRLKQAFVGGQRRDSFIRASAQNDR
Turning to B1, the binding entry in assay [1] is listed as “no binding”.

B2: nYFP-ATI2 (protein, UniProt Q8VY98 1-266)
chain: MADKDEAATRGNDWEVVSLTASAYAAAPGPKPVVDSKDDDHKEVTPCYEAETSHPLYMSRHFVFPPTGQLENTSDLTEASLTGSHCKEGSDLSLKGLDLSDDFGGLEFSEDKGKKEENIYTTAMSSLDDERAIGGSHVYEPVEEPTEPVSPSDVTLDLNPIKDDEVANSPPSEEAWWKRSVASLIAQAKETNTVWSICIAAAVMGIVILGQHWQQERWQILQQKWESSIGNEKAGRLMGPISRLKQAFVGGQRRDSFIRASAQNDR
B2: in assay [1], the binding entry is “binds”.

B3: ATI1 fused to the Gal4 activation domain (protein, UniProt O82775 1-256)
chain: MANNEEHPPRGNEWEVVSLTSSAYAAAPGPYNVESRDVRKYDAYYGAETSRDLYMSEHFVFPPSEHENLPIDESLFVAEQRKDGRDLMLEGQGLSDQFHYEAGNNQQSIYGESALGSSRHMESFGSESAVYEHGLVDAEGNLDLHSDGEGEKDVKKSTHNLPCEAWWKRRAISMYSRTREANAIWSLFFAAAVTGLVVLGQRWQQERWQVLQLKWQSSISSEKLGRVLEPLSRLKDVIVRSNPQASLVRSGSSSEV
On to B3, for which the binding entry in assay [2] is “no binding”; in assay [3], “binds”.

B4: nYFP-ATI1 (protein, UniProt O82775 1-256)
chain: MANNEEHPPRGNEWEVVSLTSSAYAAAPGPYNVESRDVRKYDAYYGAETSRDLYMSEHFVFPPSEHENLPIDESLFVAEQRKDGRDLMLEGQGLSDQFHYEAGNNQQSIYGESALGSSRHMESFGSESAVYEHGLVDAEGNLDLHSDGEGEKDVKKSTHNLPCEAWWKRRAISMYSRTREANAIWSLFFAAAVTGLVVLGQRWQQERWQVLQLKWQSSISSEKLGRVLEPLSRLKDVIVRSNPQASLVRSGSSSEV
B4: the binding result in assay [1] was “binds”.
